Article PMC5321744
Results are given in words; binding and its absence hold for the method and conditions named. Binding seen in cells or lysates may run through a third protein. These calls come from enrichment with a bait or labelling near it, and not all partners need be listed. Sequences can lack the tags named with a protein.

Amino acid sequences for entries named in this document (tags omitted).
UniProt O94267: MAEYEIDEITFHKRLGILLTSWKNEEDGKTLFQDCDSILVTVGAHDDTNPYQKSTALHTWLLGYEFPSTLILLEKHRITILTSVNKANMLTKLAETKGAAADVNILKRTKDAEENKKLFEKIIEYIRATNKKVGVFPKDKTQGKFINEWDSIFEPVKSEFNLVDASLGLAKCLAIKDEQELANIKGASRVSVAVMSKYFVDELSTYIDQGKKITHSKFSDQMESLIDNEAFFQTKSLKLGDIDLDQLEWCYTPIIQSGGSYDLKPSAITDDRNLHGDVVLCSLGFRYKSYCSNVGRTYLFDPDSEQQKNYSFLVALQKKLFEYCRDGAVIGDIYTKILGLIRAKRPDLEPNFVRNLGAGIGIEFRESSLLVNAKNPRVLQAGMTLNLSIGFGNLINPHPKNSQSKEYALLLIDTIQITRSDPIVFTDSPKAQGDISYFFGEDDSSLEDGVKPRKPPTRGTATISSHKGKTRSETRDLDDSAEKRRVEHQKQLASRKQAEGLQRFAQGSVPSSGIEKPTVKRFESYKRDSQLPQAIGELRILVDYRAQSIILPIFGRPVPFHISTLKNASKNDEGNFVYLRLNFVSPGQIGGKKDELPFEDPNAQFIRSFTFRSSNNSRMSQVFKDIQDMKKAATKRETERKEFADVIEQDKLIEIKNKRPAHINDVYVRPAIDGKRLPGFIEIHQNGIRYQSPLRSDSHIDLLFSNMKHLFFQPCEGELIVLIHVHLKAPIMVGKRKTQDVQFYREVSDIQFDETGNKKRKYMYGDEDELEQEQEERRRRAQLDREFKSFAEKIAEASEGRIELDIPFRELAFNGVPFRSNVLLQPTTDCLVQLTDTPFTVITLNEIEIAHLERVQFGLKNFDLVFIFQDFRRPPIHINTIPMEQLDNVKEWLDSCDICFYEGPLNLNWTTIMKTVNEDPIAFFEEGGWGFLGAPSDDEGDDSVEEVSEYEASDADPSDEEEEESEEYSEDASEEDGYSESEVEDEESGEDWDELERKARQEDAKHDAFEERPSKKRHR

Target: T1, TAP-tagged Fun30^Fft3 (fission yeast (S. pombe)) (UniProt O42861)
T1 sequence: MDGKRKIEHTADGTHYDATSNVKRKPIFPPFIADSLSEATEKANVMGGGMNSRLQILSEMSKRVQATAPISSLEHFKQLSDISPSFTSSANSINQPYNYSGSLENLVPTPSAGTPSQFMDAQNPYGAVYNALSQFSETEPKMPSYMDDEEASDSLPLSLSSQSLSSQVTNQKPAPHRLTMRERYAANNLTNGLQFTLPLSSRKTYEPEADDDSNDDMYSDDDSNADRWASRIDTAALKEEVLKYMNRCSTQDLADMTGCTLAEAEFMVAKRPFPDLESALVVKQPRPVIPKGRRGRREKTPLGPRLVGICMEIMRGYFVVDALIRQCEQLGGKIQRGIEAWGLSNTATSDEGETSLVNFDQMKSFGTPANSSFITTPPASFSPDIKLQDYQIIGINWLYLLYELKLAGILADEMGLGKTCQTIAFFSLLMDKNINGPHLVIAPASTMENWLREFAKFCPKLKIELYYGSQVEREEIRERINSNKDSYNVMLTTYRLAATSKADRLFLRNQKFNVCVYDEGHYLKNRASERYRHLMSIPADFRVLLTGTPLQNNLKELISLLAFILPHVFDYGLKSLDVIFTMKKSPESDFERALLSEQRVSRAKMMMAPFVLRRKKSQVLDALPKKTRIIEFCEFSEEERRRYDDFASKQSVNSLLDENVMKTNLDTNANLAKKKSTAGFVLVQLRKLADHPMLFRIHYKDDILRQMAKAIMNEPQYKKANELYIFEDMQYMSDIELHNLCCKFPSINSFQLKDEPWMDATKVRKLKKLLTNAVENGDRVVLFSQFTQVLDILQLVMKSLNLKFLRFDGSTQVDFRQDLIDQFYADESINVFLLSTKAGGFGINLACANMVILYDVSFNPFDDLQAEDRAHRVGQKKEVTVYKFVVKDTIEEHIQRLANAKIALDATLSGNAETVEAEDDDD
Test: affinity purification with mass spectrometry; tandem affinity purification (TAP) of Fun30^Fft3 from fission yeast followed by MudPIT; Workman buffer with 350 mM NaCl; non-tagged strain purified in parallel

- binding: binds
Substance: Spt16 (from UniProt O94267 1-1019)
